Measured values as given in PubChem BioAssay AID504834 (National Center for Advancing Translational Sciences (NCATS), 2011).
About 22,000 (6.9%) of roughly 320,000 compounds were called active. This list was built around the results that the source calls inconclusive (neither active nor inactive); the mix of calls is not that of the screen. Calls follow the shape of the dose curve; as a rule, active = well fitted inhibition curve with a large enough effect; inconclusive = small, poorly fitted or top-dose-only effect, or another doubt; inactive = no such curve, though single readings can be large or run the other way. Potencies beside an inconclusive call are fits to weak or partial responses and may not hold up.

Assay: Primary qHTS for delayed death inhibitors of the malarial parasite plastid, 96 hour incubation
Settings: P. falciparum luciferase reporter growth; series mostly up to 28.7 µM; activity change, negative = inhibition: at the top concentration
Method in brief: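 Parasite growth measured via integrated firefly luciferase reporter in P. falciparum. Infected erythrocytes at 2% hematocrit, 0.05% parasitemia final were treated 96 hours at 37 C under 5% CO2, and luminescence was read.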
% is scaled to controls: 0 for no effect and ±100 for the full control effect; potency is read from the fitted curve at half-maximal effect.

Structure (SMILES)	Potency	activity change, negative = inhibition
N#Cc1ccc(C23CC4(C2)[C@H](CN(Cc2ccc(-c5ccccc5)cc2)[C@@H]4c2ccccc2)C3c2ccccc2)cc1 (some centres undefined)	inconclusive: 4.15 µM [inhibitor, single point]	
CC(CN1CCCC1)OC(=O)c1ccc(Cl)cc1Cl (centres undefined)		inactive: -22.5%
CSC(=NC(C)c1ccccc1)NS(=O)(=O)c1cccs1 (centres undefined)	inconclusive: 0.104 µM [inhibitor, full curve, poor fit]	
O=C(Nc1ccc2oc(-c3cccnc3)nc2c1)c1ccco1		inactive: -9.17%
CCCCNS(=O)(=O)c1ccc2nc(SCC(=O)c3ccc(C#N)cc3)[nH]c2c1	inconclusive: 18.5 µM [inhibitor, single point]	
CN(C)c1ccc(CNCCC(Cc2ccccc2)c2ccco2)cc1 (centres undefined)	active: 9.28 µM	
Cc1ccc(OCCNC(=O)c2cccc(C)c2)cc1	inconclusive: 2.08 µM [inhibitor, full curve, poor fit]	
c1ccc2c(c1)OCC(c1nnc3n1-c1ccccc1SC3)O2 (centres undefined)	inconclusive: 10.4 µM [inhibitor, single point]	
COCCn1c(=O)[nH]c2cc(C(=O)N3CCN(c4ccccc4OC)CC3)ccc2c1=O	inconclusive: 11.7 µM [inhibitor, single point]	
CC(=O)O[C@H]1C[C@@]2(C)[C@H](C[C@@H](O)[C@H]3[C@@]4(C)CC[C@@H](O)[C@@H](C)[C@H]4CC[C@@]32C)C1=C(CCC=C(C)C)C(=O)O	inconclusive: 0.239 µM [inhibitor, full curve, poor fit]	
COc1ccc(-c2[nH]ncc2/C=N/NC(=O)c2cccc([N+](=O)[O-])c2)cc1OC		inactive: 33.3%
Cc1ccc(NC(=O)CCCn2nc(C)c3c(C)n(-c4ccccc4)nc3c2=O)c(Cl)c1		inactive: 42.7%
COc1ccc(CN(C)C(=O)c2cccc(C(=O)N(C)Cc3ccc(OC)cc3)c2)cc1	inconclusive: 0.415 µM [inhibitor, full curve]	
COc1ccc(CNC(=O)CN2CCC(NC(=O)c3ccccc3C)CC2)cc1		inactive: 30.4%
O=c1c2ccccc2cnn1-c1nc2ccccc2[nH]1		inactive: -40.6%
COC(=O)c1cc(C(=O)OC)[nH]n1	inconclusive: 5.86 µM [inhibitor, partial curve, poor fit]	
COc1ccccc1CNC(=O)/C=C/c1ccc(S(=O)(=O)NCc2ccco2)cc1	inconclusive: 9.28 µM [inhibitor, partial curve, poor fit]	
Cc1cccc(C#N)c1NC1=CC(=O)CC(C)(C)C1	inconclusive: 16.5 µM [inhibitor, single point]	
Cn1c(=O)c2c(nc(SCCN3CCCCC3)n2Cc2ccccc2)n(C)c1=O	active: 2.33 µM	
Cc1cccc(N/C(N)=N/c2nc(C)cc(=O)[nH]2)c1		inactive: 7.27%
CCOc1ccc(CO[C@@H]2O[C@H](CO)[C@@H](O)[C@H](O)[C@H]2NC(C)=O)cc1OC	inconclusive: 5.86 µM [inhibitor, partial curve]	
CCCn1c(SC(C)C(=O)N2CCOCC2)nc2ccc(Br)cc2c1=O (centres undefined)	inconclusive: 20.8 µM [inhibitor, single point]	

Structure (SMILES)	Potency	activity change, negative = inhibition
CCN(CC)CCN(C(=O)CCOc1ccccc1)c1nc2ccc(F)cc2s1		inactive: 48.7%
Cc1ccc(C)c(S(=O)(=O)N2CCN(C(=O)Cc3ccc(S(=O)(=O)N4CCOCC4)s3)CC2)c1	inconclusive: 5.86 µM [inhibitor, partial curve, poor fit]	
O=C(c1ccc(S(=O)(=O)c2ccc(F)cc2)c([N+](=O)[O-])c1)N1CCCCCC1		inactive: -17.4%
CC1CCC(NS(=O)(=O)c2ccc3c(c2)n(C)c(=O)c(=O)n3C)CC1 (centres undefined)	inconclusive: 6.57 µM [inhibitor, single point]	
C=C/C(C)=C/C[C@H]1C(=C)CCC2[C@](C)(C(=O)O)CCC[C@@]21C (some centres undefined)		inactive: 3.65%
CC(=O)Nc1nc2cc3c(cc2s1)OCO3		inactive: 251%
N#Cc1cc(C(=O)c2cc(Cl)ccc2O)cn(CC2CCCO2)c1=O (centres undefined)	inconclusive: 18.5 µM [inhibitor, partial curve, poor fit]	
N/C(=N\NC(=O)c1ccc(Cl)cc1)c1cnccn1	inconclusive: 18.5 µM [inhibitor, single point]	
O=C(Nc1ccccc1)C1CCCN(C(=O)c2ccc(Cl)cc2)C1 (centres undefined)		inactive: 8.9%
CC(NC(=O)Cc1ccc(S(=O)(=O)N2CCCCC2)cc1)c1ccccc1 (centres undefined)	active: 8.28 µM	
COc1ccc(/C(O)=C2/C(=O)C(=O)N(CCCN(C)C)C2c2ccc(C)o2)cc1Cl (centres undefined)		inactive: 14.6%
CS(=O)(=O)N1CCc2cc(C(=O)Nc3ccc(O)cc3)ccc21	inconclusive: 10.4 µM [inhibitor, partial curve, poor fit]	
O=C(NCCCN1CCOCC1)C(Sc1ccccc1)c1ccccc1 (centres undefined)	active: 7.38 µM	
CCCn1c(=O)cc(N)n(-c2ccc(OC(F)(F)F)cc2)c1=O		inactive: 4.2%
C=CCNC(=O)c1sccc1Oc1ccc(F)cc1[N+](=O)[O-]	inconclusive: 8.28 µM [inhibitor, partial curve, poor fit]	
COc1ccc(-c2nc(CS(=O)CC(=O)NCc3ccco3)c(C)o2)cc1OC (centres undefined)	inconclusive: 11.7 µM [inhibitor, single point]	
Cc1cccc(C)c1NC(=O)CSc1nnc(-c2ccco2)n1N	inconclusive: 20.8 µM [inhibitor, partial curve, poor fit]	
COCCn1c(SCC(=O)NNC(=O)c2ccccc2)nc2ccccc2c1=O	inconclusive: 14.7 µM [inhibitor, single point]	
COc1cc(OC)c(C(=O)Nc2cc(Cl)ccc2-n2cncn2)cc1OC	active: 5.86 µM	
Cc1nnc(NC(=O)c2c(-c3ccccc3)noc2C)s1	inconclusive: 0.522 µM [inhibitor, full curve, poor fit]	
Cc1cc(/C=N/NC(=O)c2cccc([N+](=O)[O-])c2)c(C)n1-c1ccc(Cl)cc1Cl	inconclusive: 2.62 µM [inhibitor, partial curve]	
Cc1cccn2c(=O)nc(SCC(=O)N3CCN(c4ccccc4)CC3)nc12		inactive: -14.4%

4 of these compounds, set out differently:
Structure (SMILES) | Potency | activity change, negative = inhibition
C=CCNC(=O)c1sccc1Oc1ccc(F)cc1[N+](=O)[O-] | inconclusive: 8.28 µM [inhibitor, partial curve, poor fit] | 
COc1ccc(-c2nc(CS(=O)CC(=O)NCc3ccco3)c(C)o2)cc1OC (centres undefined) | inconclusive: 11.7 µM [inhibitor, single point] | 
Cc1cccc(C)c1NC(=O)CSc1nnc(-c2ccco2)n1N | inconclusive: 20.8 µM [inhibitor, partial curve, poor fit] | 
COCCn1c(SCC(=O)NNC(=O)c2ccccc2)nc2ccccc2c1=O | inconclusive: 14.7 µM [inhibitor, single point] | 
